Data reported in the supplement of paper PMC12889115.
This is one part of the list. Values are raw readings; no control value is given beside them.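 Primary screen: polymyxin B was added at a level permeabilizing Salmonella outer membranes while sparing inner membranes. DMSO wells, both with and without polymyxin B, established maximum growth. Plate-to-plate variation meant each plate was ranked on its own, and the lowest-OD600 compounds were selected as hits.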

Tested on: Salmonella enterica serovar Typhimurium SL1344
Assay: bacterial growth OD600 after 18 h with compound and polymyxin B; higher = more bacterial growth (less inhibition)
Conditions: 50 µM, Mueller-Hinton broth

Compound | bacterial growth OD600 (polymyxin B 0.75 µg/mL) | bacterial growth OD600 (polymyxin B 1 µg/mL)
CC(=O)N1CCN(C(=O)CC2(c3ccccc3C)CC(=O)N(Cc3cccnc3)C2=O)CC1 (stereo not drawn) | 0.911 | –
CCOC(=O)C1(Cc2cccc(Cl)c2)CCCN(C(=O)c2cc(C)on2)C1 (stereo not drawn) | – | 0.747
Fc1ccc(Cc2noc(-c3ccc(N4CCCO4)nc3)n2)cc1 | – | 1.1
COc1cc(CC2(CCC(=O)NCCc3cccc4ccccc34)CCC(=O)N2)ccc1F (stereo not drawn) | 0.705 | –
Cc1cc(C)n2nc(C(=O)N3CCC4(CC3)CC4C(=O)NCc3cccs3)cc2n1 (stereo not drawn) | 0.992 | –
COc1cc(CC2(CCC(=O)NC3CCCc4ccccc43)CCC(=O)N2)ccc1F (stereo not drawn) | 0.801 | –
C=CCC(=O)NC1CC(=O)N(Cc2cccc3ccccc23)C1 (stereo not drawn) | – | 0.905
COc1c(C)cc(C(=O)C2CCCN(C(=O)Cn3c(=O)oc4ccccc43)C2)cc1C (stereo not drawn) | – | 0.01
COc1ccc(OC2CCN(C(=O)C3CC3)CC2)c(C(=O)NCc2cc(F)ccc2F)c1 | – | 1.04
O=C(CCC1CCCN(C(=O)c2ccco2)C1)NCc1ccccc1Cl (stereo not drawn) | – | 0.894
O=C(NC1CC1)c1coc(COc2cccc(C(F)(F)F)c2)n1 | – | 0.762
CCOC(=O)C1(Cc2ccccc2Cl)CCN(S(=O)(=O)c2ccccc2)CC1 | – | 0.67
COC(=O)CNC(=O)c1ccc(OC2CCN(S(C)(=O)=O)CC2)c(Cl)c1 | – | 1.11
COC(=O)CCC(=O)N1CCCC(CCC(=O)Nc2ccc(F)cc2C)C1 (stereo not drawn) | – | 1
COc1ccccc1-c1cn2c(C(=O)N3CCN(Cc4cccs4)CC3)csc2n1 | – | 0.897
CCOCCNC(=O)C1CCC(=O)N(CCc2ccc(OC)cc2)C1 (stereo not drawn) | – | 1.11
CN(CC1CCCN(CCc2ccccc2F)C1)C(=O)Cn1cccn1 (stereo not drawn) | – | 1.04

Molecules from the list above that have a thiophene ring, fused or not:
Compound | bacterial growth OD600 (polymyxin B 0.75 µg/mL) | bacterial growth OD600 (polymyxin B 1 µg/mL)
Cc1cc(C)n2nc(C(=O)N3CCC4(CC3)CC4C(=O)NCc3cccs3)cc2n1 (stereo not drawn) | 0.992 | –
COc1ccccc1-c1cn2c(C(=O)N3CCN(Cc4cccs4)CC3)csc2n1 | – | 0.897

The listing continues.

Compound | bacterial growth OD600 (polymyxin B 0.75 µg/mL) | bacterial growth OD600 (polymyxin B 1 µg/mL)
CCOC(=O)CN(C)C(=O)c1cc(COc2c(F)cccc2F)on1 | 0.804 | –
COCCNC(=O)c1ccc(OC2CCN(Cc3cccc(O)c3)CC2)c(Cl)c1 | – | 1.08
Cn1cc(CN2CCC(Oc3cc(Cl)ccc3C(=O)N3CCCCC3)CC2)cn1 | – | 1.09
CSCCNC(=O)CCc1nnc(CCc2c[nH]c3ccccc23)o1 | – | 0.872
COc1ccc(-c2nc(CN(C)C(C)c3ccon3)c(C)o2)cc1C (stereo not drawn) | – | 0.714
OC(c1cccnc1)C1CCN(c2nc3nonc3nc2N2CCSCC2)CC1 (stereo not drawn) | 0.784 | –
Cc1n[nH]c(C)c1CNC(=O)C1(N2CCCCC2)Cc2ccccc2C1 | – | 1.1
CC(C)CCCC1CN(C(=O)C2CCN(C(=O)N(C)C)CC2)CCO1 (stereo not drawn) | – | 0.913
COc1ccc(OC)c(-c2cc(Cl)c3c(c2)CC(CNC(=O)CNC(C)=O)O3)c1 (stereo not drawn) | 0.813 | –
CN(Cc1ccncn1)C(=O)C1CCC(=O)N(CCCc2ccccc2)C1 (stereo not drawn) | – | 1.16
COc1ccc(NC2CCCN(C(=O)c3ccc(-c4ccco4)cc3)C2)cc1 (stereo not drawn) | – | 0.74
COc1cccc(O)c1CN1CCC(C(Cc2ccccc2F)N(C)C(=O)c2cccs2)CC1 (stereo not drawn) | 0.114 | –
CN(C(=O)c1cc2ccccc2oc1=O)C1CCCN(C2Cc3ccccc3C2)C1 (stereo not drawn) | – | 1.02
CC(Cn1cncn1)NC(=O)c1ccc2nc(Cc3ccccc3F)oc2c1 (stereo not drawn) | – | 0.912
COc1ccc2c(c1)OC(C)CN(CC(=O)N1CCCN(c3nc4ccccc4o3)CC1)C2 (stereo not drawn) | 0.787 | –
Cc1ccc(C)c(-c2n[nH]cc2CN2CCCC(CNC(=O)c3cccs3)C2)c1 (stereo not drawn) | – | 0.952
